Publication PMC7819943, “Rice protein-binding microarrays: a tool to detect cis-acting elements near promoter regions in rice”
Some of the results follow.

Chains of the proteins cited; added tags and fusions are not shown.
UniProt Q0JBA9, entry or part of it: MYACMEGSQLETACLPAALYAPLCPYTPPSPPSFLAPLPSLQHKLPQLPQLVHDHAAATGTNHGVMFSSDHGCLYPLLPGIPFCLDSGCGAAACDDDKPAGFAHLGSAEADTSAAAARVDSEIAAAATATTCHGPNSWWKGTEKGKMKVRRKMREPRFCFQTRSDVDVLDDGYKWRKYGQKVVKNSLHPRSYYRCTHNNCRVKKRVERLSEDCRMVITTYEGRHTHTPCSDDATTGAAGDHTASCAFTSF

The sequences below were run against OsWRKY34 (Oryza sativa, UniProt Q0JBA9 1-250) (assay: protein-binding microarray (RPBM); PBS, 2% BSA, 51.3 ng/ul salmon testes DNA, 50 uM zinc acetate, 200 nM TF, 25 C, 1 h; high values mean tight binding). Settings: protein: recombinant; tags: N-terminal polyhistidine and DsRed monomer fusion (pET32a); label: CyDye5-dUTP incorporated in the synthesized complementary strand; 3' TTTTT single-stranded linker to array surface; dsDNA, one strand shown.
Procedure, shortened: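 An Axon 4000B scanner gave the binding signal as per-feature fluorescence intensity in arbitrary units. This followed washing of a custom Agilent array that had been incubated for 1 h at 25 °C with 200 nM protein in PBS, 2% BSA, salmon testes DNA and 50 µM zinc acetate. The proteins were transcription factors fused at the N-terminus to polyhistidine and DsRed, expressed in E. coli BL21-CodonPlus and purified on Ni–NTA.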

Row | Sequence | binding signal
1 | GTTGGTAGATTGTACTGTATATGTTTTCTCACAAAGTATACGGAGTCACCTAGTGCAG | 10200 fluorescence intensity (a.u.)
2 | AATCTACAAGATATATAACTAGATGTGTGGTGGGTTGAAACGGAGTCACCTAGTGCAG | 8280 fluorescence intensity (a.u.)
3 | AAGAGCGGCGGGGAGAAGTTGTCGTACATGACGGTGGTACCGGAGTCACCTAGTGCAG | 8040 fluorescence intensity (a.u.)
4 | AGTCTCTTATGACCAGCCGTTACTGGGTGATTGCTTTCTACGGAGTCACCTAGTGCAG | 8120 fluorescence intensity (a.u.)
5 | AACCCAAACGTACGGCTTAATGGACCAATTATTTTTTTGTCGGAGTCACCTAGTGCAG | 9980 fluorescence intensity (a.u.)
6 | GCCGCGCCGGAAAGCTGCCCCATCCACGCAACCCTGCAGCCGGAGTCACCTAGTGCAG | 8430 fluorescence intensity (a.u.)
7 | ATTTTAGCAAATCCGAAACTCATTTGGTTCATAATCTCTTCGGAGTCACCTAGTGCAG | 8170 fluorescence intensity (a.u.)
8 | TGCCGTCTTCCTCGTCTCCGGTGACTCTTCGCCGCCGGATCGGAGTCACCTAGTGCAG | 9240 fluorescence intensity (a.u.)
9 | CTCTCCATTCTGTACTTTTTTTTGCAACCCTCATCGTTTCCGGAGTCACCTAGTGCAG | 14100 fluorescence intensity (a.u.)
10 | TCATTGCTGTCTGGGGTATGGGTGGCCTTGGGAAAAGCACCGGAGTCACCTAGTGCAG | 11400 fluorescence intensity (a.u.)
11 | CTTTGTCATCGCACAGTCCACATAACTTATCCCCACGCAACGGAGTCACCTAGTGCAG | 8870 fluorescence intensity (a.u.)
12 | TATGTCTTTGATATGTCCTTCTCGCTTTTCTTCCTTTTCCCGGAGTCACCTAGTGCAG | 9390 fluorescence intensity (a.u.)
13 | CCCCATGCTGTTTTCTCAACCTCCTACTGTATTTCTCTACCGGAGTCACCTAGTGCAG | 14400 fluorescence intensity (a.u.)
14 | GTTGTCTTTCGTTTTTCCGCTGCATTTATGTAAGACTTTTCGGAGTCACCTAGTGCAG | 8180 fluorescence intensity (a.u.)
15 | CCGGCGCTCGCCTCGATCTCCGCCGCCTCGTCCCACCATGCGGAGTCACCTAGTGCAG | 10300 fluorescence intensity (a.u.)
16 | CGCCGCCTGTCCCTCTCCCCGCCGCCTGGCCGCCGCTCGCCGGAGTCACCTAGTGCAG | 9550 fluorescence intensity (a.u.)
17 | ACCATGGGCGCACACGCTTCACTGCGTCTTTTTCCATCCACGGAGTCACCTAGTGCAG | 8320 fluorescence intensity (a.u.)
18 | GTCAACGAGACATCGACTCTCCTCTGTTTTTTTTTTTTTTCGGAGTCACCTAGTGCAG | 9030 fluorescence intensity (a.u.)
19 | TATCAGATCACCCGGCTAGCTCGGCTCTCTTCTTCTTCAACGGAGTCACCTAGTGCAG | 9490 fluorescence intensity (a.u.)
20 | TGGCTGAAGGGTGTTTTGTGCAAGTTTTGGCGGGCATATCCGGAGTCACCTAGTGCAG | 8410 fluorescence intensity (a.u.)
21 | CCTCCTACTCTCCTCCATTCCTTCACTGCCTTCACTTCCCCGGAGTCACCTAGTGCAG | 8610 fluorescence intensity (a.u.)
22 | CGTCGAGGGATCTAGTTTGCACTGGTTTTGTAAGTTGGGGCGGAGTCACCTAGTGCAG | 9180 fluorescence intensity (a.u.)
23 | CATAGCGTTCTTTTTTTTCTTTTCTCGATCTCTCCCGTTGCGGAGTCACCTAGTGCAG | 11300 fluorescence intensity (a.u.)
24 | AAACCACCAGCAGTAGCAGCCATCCATTAATACGCCTTGACGGAGTCACCTAGTGCAG | 8400 fluorescence intensity (a.u.)
25 | CTAGGGGCACTCATTAATCGTAGTATTATTTTATCCTTTTCGGAGTCACCTAGTGCAG | 8490 fluorescence intensity (a.u.)
26 | ATGCTTTTTTTATTCCTTCCTATGAGGTTGTAGTGCTATTCGGAGTCACCTAGTGCAG | 10200 fluorescence intensity (a.u.)
27 | CCGTGGACCAGCGCCAACCCTCGCCACCGCACGTCGCCGGCGGAGTCACCTAGTGCAG | 9250 fluorescence intensity (a.u.)

Row | Sequence | binding signal
28 | TTCCTTCTTCCCTCTCTCACATCTTGTTGATTCCTTGCAACGGAGTCACCTAGTGCAG | 8740 fluorescence intensity (a.u.)
29 | TCCATCACTCTACCTGCTACTCCATCCGTTTTAGGTTTCACGGAGTCACCTAGTGCAG | 8810 fluorescence intensity (a.u.)
30 | GTTCGTATCGTAGCTACACATCTCCACCACTCGTTGACCACGGAGTCACCTAGTGCAG | 11500 fluorescence intensity (a.u.)
31 | AGGTTTCTTTTCTTGATTATACTTGGGCTGTGTAGATATTCGGAGTCACCTAGTGCAG | 8630 fluorescence intensity (a.u.)
32 | CAGCCCTGCTAACCATGTATTTTTCTCCTACTCCTCTATTCGGAGTCACCTAGTGCAG | 9500 fluorescence intensity (a.u.)
33 | TCCTTTCTTCCAATCTGATTCAGTCCGATCTATTTCAATTCGGAGTCACCTAGTGCAG | 8090 fluorescence intensity (a.u.)
34 | GATTAGTAAAACATACCACTTCAATTCCTATATTTTTTCTCGGAGTCACCTAGTGCAG | 10000 fluorescence intensity (a.u.)
35 | AGTCGTTTCGTCTCGTCTCGTCTCCTCCGTTTGAGATTCCCGGAGTCACCTAGTGCAG | 8420 fluorescence intensity (a.u.)
36 | ACCGTATTTTACGTTTTGTTCTGTATCTAATTCGGTTTGTCGGAGTCACCTAGTGCAG | 10700 fluorescence intensity (a.u.)
37 | GCCGCCGCTCGTCCCGTTTCACTCATCCGCCGCTGAGCTCCGGAGTCACCTAGTGCAG | 10200 fluorescence intensity (a.u.)
38 | CAATATTTAAATGTCCATTCCACCCTTATGTTTTTCATTGCGGAGTCACCTAGTGCAG | 9620 fluorescence intensity (a.u.)
39 | CACGTCGCCTCGTTTCTTGCCTCGCCGCTCGTCACTCGGCCGGAGTCACCTAGTGCAG | 9810 fluorescence intensity (a.u.)
40 | CTCTTCCGCTTCCTACTCCTACTCCGTCGCAATCCGCCGCCGGAGTCACCTAGTGCAG | 9870 fluorescence intensity (a.u.)
41 | ACTCCTGCACACCGCAGTCAAAGTTCTTAAGTCTCAACTACGGAGTCACCTAGTGCAG | 9260 fluorescence intensity (a.u.)
42 | TCGTTAATTTGCAACCATACCTTAGCTCCACACTCCACGACGGAGTCACCTAGTGCAG | 8420 fluorescence intensity (a.u.)
43 | CGGGCAGCCAGCTGCATTATTTCATTATTTGTTTCTGCCTCGGAGTCACCTAGTGCAG | 9200 fluorescence intensity (a.u.)
44 | CACTTTTACCTGTTTTTGTTTTTTTTAACTTCTTCTACATCGGAGTCACCTAGTGCAG | 10600 fluorescence intensity (a.u.)
45 | GCATCCCGCCCACCCACCGCGCGCCACCGCCTCCGCCGCCCGGAGTCACCTAGTGCAG | 15400 fluorescence intensity (a.u.)
46 | ATCTGAATTTATTTTCCACCTATACTATACCTTTTATCAACGGAGTCACCTAGTGCAG | 8500 fluorescence intensity (a.u.)
47 | TGTTTGCAACGTTTGACCACTCGTCTTATTTAATTTTTTTCGGAGTCACCTAGTGCAG | 8530 fluorescence intensity (a.u.)
48 | TGTAACCAATATTTGACCATTCGTCTTATTCAAATTTTTTCGGAGTCACCTAGTGCAG | 11500 fluorescence intensity (a.u.)
49 | GGTTAAAGACATGCTAAAAAGTCAACGGTGTCAAATATTTCGGAGTCACCTAGTGCAG | 11700 fluorescence intensity (a.u.)
50 | CCACCGTCCGTCTCCATCCGACGCCTCCCGAACCGCAGCCCGGAGTCACCTAGTGCAG | 8180 fluorescence intensity (a.u.)
51 | CTTTATCCGTGTTCTTCTCTGTAGAAGGTCAATGCAGCATCGGAGTCACCTAGTGCAG | 8960 fluorescence intensity (a.u.)
52 | ATCCACCGCCCCATTCCTGCTCTCTTCATCTTCACCTTCACGGAGTCACCTAGTGCAG | 11500 fluorescence intensity (a.u.)
53 | AACTTTTTTTATATATGTGTTCTTAACAAACTCCCGAGAGCGGAGTCACCTAGTGCAG | 9030 fluorescence intensity (a.u.)
54 | TCCCCGCGCTTCTTCCCTTTGCCCGTCGCTCGCTGCATCACGGAGTCACCTAGTGCAG | 16100 fluorescence intensity (a.u.)

Copied from above, nos. 46 to 49
Row | Sequence | binding signal
46 | ATCTGAATTTATTTTCCACCTATACTATACCTTTTATCAACGGAGTCACCTAGTGCAG | 8500 fluorescence intensity (a.u.)
47 | TGTTTGCAACGTTTGACCACTCGTCTTATTTAATTTTTTTCGGAGTCACCTAGTGCAG | 8530 fluorescence intensity (a.u.)
48 | TGTAACCAATATTTGACCATTCGTCTTATTCAAATTTTTTCGGAGTCACCTAGTGCAG | 11500 fluorescence intensity (a.u.)
49 | GGTTAAAGACATGCTAAAAAGTCAACGGTGTCAAATATTTCGGAGTCACCTAGTGCAG | 11700 fluorescence intensity (a.u.)
